According to paper PMC5393151:
No constants are given. Whether binding was seen depends on the method and setting. Binding seen in cells or lysates may run through a third protein. Some results given as binding are weak or reduced against the parent protein; the word gives no strength.

By UniProt entry, the sequences of proteins in these tests, tags left out. Where a name states a change or a piece, a line headed by the entry shows the natural chain unless it says otherwise.
UniProt Q07878: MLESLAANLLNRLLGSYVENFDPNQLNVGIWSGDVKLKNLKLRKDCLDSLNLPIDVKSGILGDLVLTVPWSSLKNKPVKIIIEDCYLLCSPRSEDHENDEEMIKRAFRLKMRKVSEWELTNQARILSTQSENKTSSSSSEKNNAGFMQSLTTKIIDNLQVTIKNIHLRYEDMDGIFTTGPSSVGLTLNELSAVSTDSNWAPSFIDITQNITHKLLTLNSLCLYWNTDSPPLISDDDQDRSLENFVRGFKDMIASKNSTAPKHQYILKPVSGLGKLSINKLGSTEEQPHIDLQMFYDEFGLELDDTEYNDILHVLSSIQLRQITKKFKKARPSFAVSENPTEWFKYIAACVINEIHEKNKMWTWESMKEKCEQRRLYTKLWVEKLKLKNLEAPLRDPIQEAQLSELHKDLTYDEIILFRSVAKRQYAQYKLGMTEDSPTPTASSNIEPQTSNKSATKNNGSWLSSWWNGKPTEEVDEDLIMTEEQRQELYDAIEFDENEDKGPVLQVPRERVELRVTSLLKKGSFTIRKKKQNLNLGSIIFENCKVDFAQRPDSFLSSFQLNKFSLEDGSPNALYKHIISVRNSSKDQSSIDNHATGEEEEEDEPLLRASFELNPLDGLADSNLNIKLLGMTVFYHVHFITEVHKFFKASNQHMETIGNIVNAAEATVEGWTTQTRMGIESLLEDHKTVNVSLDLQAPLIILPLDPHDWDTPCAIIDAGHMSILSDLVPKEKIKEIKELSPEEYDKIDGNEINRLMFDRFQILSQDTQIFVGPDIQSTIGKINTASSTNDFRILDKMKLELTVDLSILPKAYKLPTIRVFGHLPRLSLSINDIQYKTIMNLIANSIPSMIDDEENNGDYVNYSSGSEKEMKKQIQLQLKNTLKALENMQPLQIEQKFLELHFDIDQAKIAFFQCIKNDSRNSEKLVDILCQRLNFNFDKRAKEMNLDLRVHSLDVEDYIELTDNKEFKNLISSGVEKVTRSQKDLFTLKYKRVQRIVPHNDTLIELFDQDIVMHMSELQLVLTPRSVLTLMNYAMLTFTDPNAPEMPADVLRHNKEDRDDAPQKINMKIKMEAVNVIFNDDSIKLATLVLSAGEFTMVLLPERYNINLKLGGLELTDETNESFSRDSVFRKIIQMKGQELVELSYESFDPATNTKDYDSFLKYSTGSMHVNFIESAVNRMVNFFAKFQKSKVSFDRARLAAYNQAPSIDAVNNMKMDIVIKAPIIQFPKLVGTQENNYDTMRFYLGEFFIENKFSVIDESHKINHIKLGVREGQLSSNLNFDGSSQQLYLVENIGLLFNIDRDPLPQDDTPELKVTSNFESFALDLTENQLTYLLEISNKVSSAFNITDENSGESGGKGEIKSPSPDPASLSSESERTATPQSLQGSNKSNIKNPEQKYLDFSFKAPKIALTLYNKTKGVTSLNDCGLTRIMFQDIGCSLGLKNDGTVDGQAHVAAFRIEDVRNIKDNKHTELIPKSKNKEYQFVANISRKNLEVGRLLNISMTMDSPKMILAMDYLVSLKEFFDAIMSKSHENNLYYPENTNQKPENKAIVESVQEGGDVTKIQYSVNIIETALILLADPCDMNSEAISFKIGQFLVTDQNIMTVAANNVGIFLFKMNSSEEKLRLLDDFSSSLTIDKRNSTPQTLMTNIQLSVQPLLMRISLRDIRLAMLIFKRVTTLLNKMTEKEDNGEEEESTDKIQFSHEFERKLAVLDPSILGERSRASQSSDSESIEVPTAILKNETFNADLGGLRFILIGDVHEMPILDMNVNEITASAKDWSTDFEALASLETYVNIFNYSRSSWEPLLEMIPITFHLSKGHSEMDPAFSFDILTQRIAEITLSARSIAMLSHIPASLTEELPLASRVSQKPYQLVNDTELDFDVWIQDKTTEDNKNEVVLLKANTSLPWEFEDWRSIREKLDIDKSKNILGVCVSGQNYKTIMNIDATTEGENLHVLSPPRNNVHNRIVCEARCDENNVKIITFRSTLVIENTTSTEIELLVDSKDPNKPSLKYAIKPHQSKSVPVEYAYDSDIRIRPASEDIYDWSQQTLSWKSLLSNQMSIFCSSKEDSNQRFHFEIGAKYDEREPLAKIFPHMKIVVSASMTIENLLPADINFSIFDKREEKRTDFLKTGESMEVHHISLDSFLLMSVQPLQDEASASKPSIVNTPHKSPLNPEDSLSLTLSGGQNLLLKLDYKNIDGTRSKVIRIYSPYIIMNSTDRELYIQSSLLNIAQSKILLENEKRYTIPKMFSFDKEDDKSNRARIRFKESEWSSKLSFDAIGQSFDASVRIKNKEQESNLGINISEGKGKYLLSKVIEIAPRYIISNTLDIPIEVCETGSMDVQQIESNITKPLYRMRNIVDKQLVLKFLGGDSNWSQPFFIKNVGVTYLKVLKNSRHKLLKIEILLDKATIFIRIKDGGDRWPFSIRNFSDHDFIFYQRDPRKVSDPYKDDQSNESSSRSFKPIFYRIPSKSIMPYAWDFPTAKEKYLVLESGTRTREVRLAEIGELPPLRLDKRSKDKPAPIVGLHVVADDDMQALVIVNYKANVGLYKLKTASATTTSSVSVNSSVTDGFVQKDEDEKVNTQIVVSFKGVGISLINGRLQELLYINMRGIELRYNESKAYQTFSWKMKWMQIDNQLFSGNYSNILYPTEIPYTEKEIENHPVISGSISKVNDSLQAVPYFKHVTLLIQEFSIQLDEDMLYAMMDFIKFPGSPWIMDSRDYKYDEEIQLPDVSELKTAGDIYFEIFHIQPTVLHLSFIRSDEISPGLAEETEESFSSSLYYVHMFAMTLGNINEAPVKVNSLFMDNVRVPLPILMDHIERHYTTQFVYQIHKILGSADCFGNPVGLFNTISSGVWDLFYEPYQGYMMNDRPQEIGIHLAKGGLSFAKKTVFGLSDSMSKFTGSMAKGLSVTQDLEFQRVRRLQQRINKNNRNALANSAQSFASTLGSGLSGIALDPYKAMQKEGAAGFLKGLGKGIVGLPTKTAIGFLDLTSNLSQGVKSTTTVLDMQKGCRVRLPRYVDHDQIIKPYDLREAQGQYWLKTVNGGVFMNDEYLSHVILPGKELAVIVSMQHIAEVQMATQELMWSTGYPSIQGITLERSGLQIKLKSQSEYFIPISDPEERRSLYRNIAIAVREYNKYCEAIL

Legend:
[1] = target: Vps13-GFP (S. cerevisiae) (UniProt Q07878); experiment: co-IP; GFP-tagged Vps13 precipitated with GFP-Trap magnetic beads from yeast extracts (glass beads; 50 mM HEPES pH 7.5, 100 mM NaCl, 1 mM MgCl2, 0.5% Triton X-100), 2 h at 4 °C, five washes with 50 mM HEPES pH 7.5; western blot with anti-GFP and anti-actin
[2] = target: Vps13-I2749R-GFP (S. cerevisiae) (UniProt Q07878); experiment: as above

binding [1]: binds
binding [2]: binds
Substance: actin (from UniProt P60010 1-375)
